This note sets out measurements from publication PMC11925928.

For experiment [1], the target named is Cellular tumor antigen p53 (human (endogenous in HCT116)) (UniProt P04637). The experiment can be described thus: affinity purification with mass spectrometry; TF-chRDP: HCT116 cells (375 uM 5-FU for 9 h to activate p53; DMSO as control) dual cross-linked with 1% formaldehyde and 2 mM EGS; nuclei sonicated; endogenous p53 chromatin complexes immunoprecipitated overnight at 4°C with anti-p53 (sc-126) on Protein G beads; low salt, high salt and TE washes; on-bead trypsin digestion; nano LC-MS/MS, MaxQuant.

For experiment [2], the target named is Cellular tumor antigen p53 (human (endogenous in HCT116)), P04637. The description is as above. As to conditions: remark: other sources report otherwise.

These are yes or no findings as the source states them, for the method shown. Binding seen in cells or lysates may run through a third protein. A yes stands for co-enrichment or nearness to the bait. Other partners may have been found.

B1: Heterogeneous nuclear ribonucleoprotein M (protein, UniProt P52272 1-730)
chain: MAAGVEAAAEVAATEIKMEEESGAPGVPSGNGAPGPKGEGERPAQNEKRKEKNIKRGGNRFEPYANPTKRYRAFITNIPFDVKWQSLKDLVKEKVGEVTYVELLMDAEGKSRGCAVVEFKMEESMKKAAEVLNKHSLSGRPLKVKEDPDGEHARRAMQKVMATTGGMGMGPGGPGMITIPPSILNNPNIPNEIIHALQAGRLGSTVFVANLDYKVGWKKLKEVFSMAGVVVRADILEDKDGKSRGIGTVTFEQSIEAVQAISMFNGQLLFDRPMHVKMDERALPKGDFFPPERPQQLPHGLGGIGMGLGPGGQPIDANHLNKGIGMGNIGPAGMGMEGIGFGINKMGGMEGPFGGGMENMGRFGSGMNMGRINEILSNALKRGEIIAKQGGGGGGGSVPGIERMGPGIDRLGGAGMERMGAGLGHGMDRVGSEIERMGLVMDRMGSVERMGSGIERMGPLGLDHMASSIERMGQTMERIGSGVERMGAGMGFGLERMAAPIDRVGQTIERMGSGVERMGPAIERMGLSMERMVPAGMGAGLERMGPVMDRMATGLERMGANNLERMGLERMGANSLERMGLERMGANSLERMGPAMGPALGAGIERMGLAMGGGGGASFDRAIEMERGNFGGSFAGSFGGAGGHAPGVARKACQIFVRNLPFDFTWKMLKDKFNECGHVLYADIKMENGKSKGCGVVKFESPEVAERACRMMNGMKLSGREIDVRIDRNA
With B1, the binding entry in experiment [1] is “binds”.

B2: TRIM28, Q13263 1-835 (protein)
chain: MAASAAAASAAAASAASGSPGPGEGSAGGEKRSTAPSAAASASASAAASSPAGGGAEALELLEHCGVCRERLRPEREPRLLPCLHSACSACLGPAAPAAANSSGDGGAAGDGTVVDCPVCKQQCFSKDIVENYFMRDSGSKAATDAQDANQCCTSCEDNAPATSYCVECSEPLCETCVEAHQRVKYTKDHTVRSTGPAKSRDGERTVYCNVHKHEPLVLFCESCDTLTCRDCQLNAHKDHQYQFLEDAVRNQRKLLASLVKRLGDKHATLQKSTKEVRSSIRQVSDVQKRVQVDVKMAILQIMKELNKRGRVLVNDAQKVTEGQQERLERQHWTMTKIQKHQEHILRFASWALESDNNTALLLSKKLIYFQLHRALKMIVDPVEPHGEMKFQWDLNAWTKSAEAFGKIVAERPGTNSTGPAPMAPPRAPGPLSKQGSGSSQPMEVQEGYGFGSGDDPYSSAEPHVSGVKRSRSGEGEVSGLMRKVPRVSLERLDLDLTADSQPPVFKVFPGSTTEDYNLIVIERGAAAAATGQPGTAPAGTPGAPPLAGMAIVKEEETEAAIGAPPTATEGPETKPVLMALAEGPGAEGPRLASPSGSTSSGLEVVAPEGTSAPGGGPGTLDDSATICRVCQKPGDLVMCNQCEFCFHLDCHLPALQDVPGEEWSCSLCHVLPDLKEEDGSLSLDGADSTGVVAKLSPANQRKCERVLLALFCHEPCRPLHQLATDSTFSLDQPGGTLDLTLIRARLQEKLSPPYSSPQEFAQDVGRMFKQFNKLTEDKADVQSIIGLQRFFETRMNEAFGDTKFSAVLVEPPPMSLPGAGLSSQELSGGPGDGP
For the molecule B2, the binding entry in experiment [2] is “binds”.
